According to patent US12128037B2 (priority 2017, dated 2024):
Some entries share one result that the patent states for a list of compounds.

Assay: Gravimetric vapour sorption (GVS), hygroscopicity
Type: physicochemical
Settings: water uptake at RH 80% and 25° C.
Procedure: Gravimetric vapour sorption (GVS) was used to determine the hygrocopicity of the samples: experiments were performed at 25° C. using a DVS 1 instrument from SMS Ltd to record adsorption-desorption isotherms using different methods, the main features being: a single sorption/desorption cycle from 0 to 80% RH in 10% RH steps with a dm/dt trigger value of 0.002% (dm/dt=change in mass with time—when the balance stability is within this value the next step is automatically started, however, if those conditions are not achieved there is a default maximum time for each step of 6 hours). The sample amount used was 1-3 mg.

In the case of `CCNCC.O=C(O)c1cc(N=Nc2ccc(S(=O)(=O)Nc3ccccn3)cc2)ccc1O` [Form B diethylamine salt, Diethylamine 2-hydroxy-5-[2-[4-[(2-pyridinylamino)sulfonyl]phenyl]diazenyl]-benzoate], the “hygroscopicity class (European Pharmacopoeia)” value is reported as “slightly hygroscopic (equal to or greater than 0.2 but less than 2% w/w uptake at RH 80% and 25° C.)”.
